Three molecules from paper PMC5984089, “FBXW7 regulates DISC1 stability via the ubiquitin-proteosome system” (Molecular Psychiatry, 2017) can be followed below.

Sequences of proteins named here, by UniProt entry; tags and fusion partners are left off.
UniProt Q969H0: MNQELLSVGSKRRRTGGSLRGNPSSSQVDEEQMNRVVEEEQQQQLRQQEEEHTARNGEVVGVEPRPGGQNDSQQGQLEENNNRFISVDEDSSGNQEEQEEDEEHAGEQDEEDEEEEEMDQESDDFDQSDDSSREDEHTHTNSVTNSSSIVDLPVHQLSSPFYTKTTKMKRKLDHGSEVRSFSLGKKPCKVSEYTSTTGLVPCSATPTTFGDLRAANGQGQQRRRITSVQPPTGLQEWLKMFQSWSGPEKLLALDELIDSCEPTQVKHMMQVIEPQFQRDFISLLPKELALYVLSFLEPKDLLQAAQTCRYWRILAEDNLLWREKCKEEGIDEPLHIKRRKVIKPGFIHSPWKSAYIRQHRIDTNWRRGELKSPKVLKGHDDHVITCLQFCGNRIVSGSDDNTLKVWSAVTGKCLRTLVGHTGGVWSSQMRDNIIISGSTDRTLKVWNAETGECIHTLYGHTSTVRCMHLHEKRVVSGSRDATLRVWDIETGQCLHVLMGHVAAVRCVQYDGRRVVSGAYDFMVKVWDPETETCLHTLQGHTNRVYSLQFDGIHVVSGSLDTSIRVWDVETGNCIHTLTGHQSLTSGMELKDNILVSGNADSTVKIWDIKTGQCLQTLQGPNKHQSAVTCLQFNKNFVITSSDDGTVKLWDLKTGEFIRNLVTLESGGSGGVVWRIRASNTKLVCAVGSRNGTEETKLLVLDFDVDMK

Results are given in words; binding and its absence hold for the method and conditions named. In cells and extracts the contact can be indirect. Some binding calls cover weakened binding; strength is not graded here. Where a sequence is shown, tags or fusion partners need not be part of it.

One test deals with T1, FLAG-DISC1 (UniProt Q9NRI5).
T1 sequence: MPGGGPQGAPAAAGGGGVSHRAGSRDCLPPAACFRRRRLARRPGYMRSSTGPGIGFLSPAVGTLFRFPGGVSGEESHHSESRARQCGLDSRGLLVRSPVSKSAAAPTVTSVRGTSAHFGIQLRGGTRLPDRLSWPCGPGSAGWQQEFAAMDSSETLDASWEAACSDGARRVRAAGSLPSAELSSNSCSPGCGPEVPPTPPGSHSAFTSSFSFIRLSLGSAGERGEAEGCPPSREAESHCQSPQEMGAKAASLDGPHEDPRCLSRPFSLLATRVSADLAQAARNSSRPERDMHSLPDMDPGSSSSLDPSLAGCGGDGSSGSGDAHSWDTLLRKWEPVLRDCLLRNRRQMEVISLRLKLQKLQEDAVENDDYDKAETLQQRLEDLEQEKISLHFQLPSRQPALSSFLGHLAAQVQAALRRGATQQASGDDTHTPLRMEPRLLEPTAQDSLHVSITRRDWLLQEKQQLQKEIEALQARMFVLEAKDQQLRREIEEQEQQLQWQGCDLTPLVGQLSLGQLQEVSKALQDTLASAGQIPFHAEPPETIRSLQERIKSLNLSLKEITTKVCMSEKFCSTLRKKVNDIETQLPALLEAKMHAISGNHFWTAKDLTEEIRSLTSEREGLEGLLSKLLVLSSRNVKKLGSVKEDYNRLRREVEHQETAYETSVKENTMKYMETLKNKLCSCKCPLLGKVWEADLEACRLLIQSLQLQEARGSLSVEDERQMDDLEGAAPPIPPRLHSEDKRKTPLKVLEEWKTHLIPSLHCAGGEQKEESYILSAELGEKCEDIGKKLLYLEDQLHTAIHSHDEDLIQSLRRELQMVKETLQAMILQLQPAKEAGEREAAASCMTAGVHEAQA
Put plainly: co-IP; HEK293 cells transfected; FLAG immunoprecipitated from cell lysates on tagged agarose, overnight at 4 °C; western blot.

For the next test, the target named is FLAG-tagged FBXW7 (UniProt Q969H0). The test is described as above.

“endogenous FBXW7 (from UniProt Q969H0 1-707)”: in the test with FLAG-DISC1, the binding result is recorded as “binds”.

B1: GFP-DISC1 (protein, UniProt Q9NRI5 1-854)
chain: MPGGGPQGAPAAAGGGGVSHRAGSRDCLPPAACFRRRRLARRPGYMRSSTGPGIGFLSPAVGTLFRFPGGVSGEESHHSESRARQCGLDSRGLLVRSPVSKSAAAPTVTSVRGTSAHFGIQLRGGTRLPDRLSWPCGPGSAGWQQEFAAMDSSETLDASWEAACSDGARRVRAAGSLPSAELSSNSCSPGCGPEVPPTPPGSHSAFTSSFSFIRLSLGSAGERGEAEGCPPSREAESHCQSPQEMGAKAASLDGPHEDPRCLSRPFSLLATRVSADLAQAARNSSRPERDMHSLPDMDPGSSSSLDPSLAGCGGDGSSGSGDAHSWDTLLRKWEPVLRDCLLRNRRQMEVISLRLKLQKLQEDAVENDDYDKAETLQQRLEDLEQEKISLHFQLPSRQPALSSFLGHLAAQVQAALRRGATQQASGDDTHTPLRMEPRLLEPTAQDSLHVSITRRDWLLQEKQQLQKEIEALQARMFVLEAKDQQLRREIEEQEQQLQWQGCDLTPLVGQLSLGQLQEVSKALQDTLASAGQIPFHAEPPETIRSLQERIKSLNLSLKEITTKVCMSEKFCSTLRKKVNDIETQLPALLEAKMHAISGNHFWTAKDLTEEIRSLTSEREGLEGLLSKLLVLSSRNVKKLGSVKEDYNRLRREVEHQETAYETSVKENTMKYMETLKNKLCSCKCPLLGKVWEADLEACRLLIQSLQLQEARGSLSVEDERQMDDLEGAAPPIPPRLHSEDKRKTPLKVLEEWKTHLIPSLHCAGGEQKEESYILSAELGEKCEDIGKKLLYLEDQLHTAIHSHDEDLIQSLRRELQMVKETLQAMILQLQPAKEAGEREAAASCMTAGVHEAQA
For the molecule B1, the binding entry with FLAG-tagged FBXW7 is reported as “binds”.

B2: V5-DISC1 (protein, UniProt Q9NRI5 1-854)
chain: MPGGGPQGAPAAAGGGGVSHRAGSRDCLPPAACFRRRRLARRPGYMRSSTGPGIGFLSPAVGTLFRFPGGVSGEESHHSESRARQCGLDSRGLLVRSPVSKSAAAPTVTSVRGTSAHFGIQLRGGTRLPDRLSWPCGPGSAGWQQEFAAMDSSETLDASWEAACSDGARRVRAAGSLPSAELSSNSCSPGCGPEVPPTPPGSHSAFTSSFSFIRLSLGSAGERGEAEGCPPSREAESHCQSPQEMGAKAASLDGPHEDPRCLSRPFSLLATRVSADLAQAARNSSRPERDMHSLPDMDPGSSSSLDPSLAGCGGDGSSGSGDAHSWDTLLRKWEPVLRDCLLRNRRQMEVISLRLKLQKLQEDAVENDDYDKAETLQQRLEDLEQEKISLHFQLPSRQPALSSFLGHLAAQVQAALRRGATQQASGDDTHTPLRMEPRLLEPTAQDSLHVSITRRDWLLQEKQQLQKEIEALQARMFVLEAKDQQLRREIEEQEQQLQWQGCDLTPLVGQLSLGQLQEVSKALQDTLASAGQIPFHAEPPETIRSLQERIKSLNLSLKEITTKVCMSEKFCSTLRKKVNDIETQLPALLEAKMHAISGNHFWTAKDLTEEIRSLTSEREGLEGLLSKLLVLSSRNVKKLGSVKEDYNRLRREVEHQETAYETSVKENTMKYMETLKNKLCSCKCPLLGKVWEADLEACRLLIQSLQLQEARGSLSVEDERQMDDLEGAAPPIPPRLHSEDKRKTPLKVLEEWKTHLIPSLHCAGGEQKEESYILSAELGEKCEDIGKKLLYLEDQLHTAIHSHDEDLIQSLRRELQMVKETLQAMILQLQPAKEAGEREAAASCMTAGVHEAQA
B2: in the test with FLAG-tagged FBXW7, the binding entry is “binds”.
